For some assays here: The comparison behind a weaker result is the experiment's own reference, which may not be listed here. Where a protein sequence is shown, tags need not be part of it. For some assays here: For at least one entry, the source does not settle the construct or the ends of the probe. For some assays here: Negatives hold for the conditions tested.
Experiments:
NNDP52 (Human) = molecular target: T1, NNDP52 (Human) (UniProt Q13137); assay: fluorescence titration; conditions: much lower affinity, recombinant protein, residues 1-190, protein details: His-tag (pET151)
T1 sequence (looked up): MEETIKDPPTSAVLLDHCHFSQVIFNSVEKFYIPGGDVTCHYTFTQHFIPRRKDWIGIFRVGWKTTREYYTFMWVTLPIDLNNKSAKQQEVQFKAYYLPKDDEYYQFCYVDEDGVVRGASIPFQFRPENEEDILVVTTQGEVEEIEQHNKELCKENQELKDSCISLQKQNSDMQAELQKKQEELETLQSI

NDP52-FL (Human) [1] = molecular target: T2, NDP52-FL (Human) (UniProt Q13137); assay: AFM; conditions: magnesium buffer or poly-L-ornithine, prefers DNA ends; recombinant protein; residues 1-446; protein details: His-tag (pET151)
T2 sequence (looked up): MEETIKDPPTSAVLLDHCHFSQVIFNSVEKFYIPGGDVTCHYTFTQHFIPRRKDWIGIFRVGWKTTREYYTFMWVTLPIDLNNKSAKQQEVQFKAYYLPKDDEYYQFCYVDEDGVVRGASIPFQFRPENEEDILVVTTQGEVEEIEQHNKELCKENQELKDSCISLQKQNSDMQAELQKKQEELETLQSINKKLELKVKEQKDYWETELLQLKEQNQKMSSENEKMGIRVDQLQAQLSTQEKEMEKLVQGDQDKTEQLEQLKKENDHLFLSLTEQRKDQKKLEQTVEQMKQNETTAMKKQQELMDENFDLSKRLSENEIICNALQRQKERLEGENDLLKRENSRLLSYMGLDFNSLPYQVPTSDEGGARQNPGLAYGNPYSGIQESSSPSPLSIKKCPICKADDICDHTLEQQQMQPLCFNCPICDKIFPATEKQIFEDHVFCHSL

CNDP52 (Human) = molecular target: T3, CNDP52 (Human) (UniProt Q13137); assay: AFM; conditions: PLL, clustering around DNA; recombinant protein; residues 365-446; protein details: His-tag (pET151)
T3 sequence (looked up): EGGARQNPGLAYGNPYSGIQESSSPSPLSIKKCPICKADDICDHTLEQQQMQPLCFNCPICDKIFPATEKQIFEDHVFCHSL

NDP52-FL (Human) [2] = molecular target: T2, NDP52-FL (Human); assay: competition with a labelled probe; conditions: against FAM-ds40; EMSA: 50 mM Tris-HCl pH 7.5, 50 mM NaCl, 3 mM MgCl2, 5 min; temperature not stated; recombinant protein; residues 1-446; protein details: His-tag (pET151); single-stranded DNA

Q: Does TTAGTTGTTCTCTGG (double strand) [ds15] bind (NNDP52 (Human); label: 3' FAM (called FITC in Methods) on strand 1)?
A: binds more weakly

Q: Does “TTAGTTGTTCGTAGTGCTCGTCTGGCTCTGGATTACCCGC (double strand) [ds40]” bind (NNDP52 (Human))?
A: binds more weakly

Q: Does “TATGTTGTGTTTTACAGTATTATGTAGTCTGTTTTTTATGCAAAATCTAATTTAATATATTGATATTTATATCATTTTACGTTTCTCGTTCAGCTTTTTTATACTAACTTGAGCGAAACGGGAAGGGTTTTCACCGATATCACCGAAACGCGCGAGGCAGCTGTATGGCGAAATGAAAGAACAAACTTTCTTGTACGCGGTGGTGAGAGAGAGAGAGAGATACGACTACTATCAGCCGGAAGCCTATGTACCGAGTTCCGACACTTTCATTGAGAAAGATGCCTCAGCTCTGTTACAGGTCACTAATACCATCTAAGTAGTTGATTCATAGTGACTGCA (double strand) [ds339]” bind (NDP52-FL (Human) [1])?
A: binds

Q: Does “TATGTTGTGTTTTACAGTATTATGTAGTCTGTTTTTTATGCAAAATCTAATTTAATATATTGATATTTATATCATTTTACGTTTCTCGTTCAGCTTTTTTATACTAACTTGAGCGAAACGGGAAGGGTTTTCACCGATATCACCGAAACGCGCGAGGCAGCTGTATGGCGAAATGAAAGAACAAACTTTCTTGTACGCGGTGGTGAGAGAGAGAGAGAGATACGACTACTATCAGCCGGAAGCCTATGTACCGAGTTCCGACACTTTCATTGAGAAAGATGCCTCAGCTCTGTTACAGGTCACTAATACCATCTAAGTAGTTGATTCATAGTGACTGCA (double strand) [ds339]” bind (CNDP52 (Human))?
A: binds

Q: Does “TTAGTTGTTCGTAGTGCTCGTCTGGCTCTGGATTACCCGC [ssDNA competitor (40 bases)]” bind (NDP52-FL (Human) [2])?
A: no binding
